Test results: PMC12677614
Results are given in words; binding and its absence hold for the method and conditions named. In cells and extracts the contact can be indirect. Some entries that bind do so weakly or less than the wild type.

The chains behind the UniProt entries cited, without tags or fusion partners.
UniProt Q96CV9: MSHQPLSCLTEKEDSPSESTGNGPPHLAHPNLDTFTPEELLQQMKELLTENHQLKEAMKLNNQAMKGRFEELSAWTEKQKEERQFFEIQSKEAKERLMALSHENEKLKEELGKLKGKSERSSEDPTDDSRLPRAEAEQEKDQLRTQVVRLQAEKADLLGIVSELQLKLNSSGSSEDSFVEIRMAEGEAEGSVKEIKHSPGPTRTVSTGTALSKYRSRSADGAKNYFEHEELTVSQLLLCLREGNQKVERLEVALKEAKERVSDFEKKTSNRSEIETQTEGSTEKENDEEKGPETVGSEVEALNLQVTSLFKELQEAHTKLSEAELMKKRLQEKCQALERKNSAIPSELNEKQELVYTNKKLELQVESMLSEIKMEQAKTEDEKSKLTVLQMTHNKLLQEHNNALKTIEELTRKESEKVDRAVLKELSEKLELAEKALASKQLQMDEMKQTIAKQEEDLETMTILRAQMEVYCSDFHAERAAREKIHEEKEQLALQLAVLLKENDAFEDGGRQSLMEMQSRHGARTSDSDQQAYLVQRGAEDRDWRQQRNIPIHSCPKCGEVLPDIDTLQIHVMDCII

Target: OPTN in glioblastoma cells (human (endogenous in LN-229)) (UniProt Q96CV9)
Assay: co-IP; Co-IP targeting OPTN, TRIM16 and MID1 in the LN-229 cell line, Western blot

- binding: binds
B1: MID1 in cells (protein, UniProt O15344 1-667)
chain: METLESELTCPICLELFEDPLLLPCAHSLCFNCAHRILVSHCATNESVESITAFQCPTCRHVITLSQRGLDGLKRNVTLQNIIDRFQKASVSGPNSPSETRRERAFDANTMTSAEKVLCQFCDQDPAQDAVKTCVTCEVSYCDECLKATHPNKKPFTGHRLIEPIPDSHIRGLMCLEHEDEKVNMYCVTDDQLICALCKLVGRHRDHQVAALSERYDKLKQNLESNLTNLIKRNTELETLLAKLIQTCQHVEVNASRQEAKLTEECDLLIEIIQQRRQIIGTKIKEGKVMRLRKLAQQIANCKQCIERSASLISQAEHSLKENDHARFLQTAKNITERVSMATASSQVLIPEINLNDTFDTFALDFSREKKLLECLDYLTAPNPPTIREELCTASYDTITVHWTSDDEFSVVSYELQYTIFTGQANVVSLCNSADSWMIVPNIKQNHYTVHGLQSGTKYIFMVKAINQAGSRSSEPGKLKTNSQPFKLDPKSAHRKLKVSHDNLTVERDESSSKKSHTPERFTSQGSYGVAGNVFIDSGRHYWEVVISGSTWYAIGLAYKSAPKHEWIGKNSASWALCRCNNNWVVRHNSKEIPIEPAPHLRRVGILLDYDNGSIAFYDALNSIHLYTFDVAFAQPVCPTFTVWNKCLTIITGLPIPDHLDCTEQLP
